In article PMC8853643:
No constants are given. Whether binding was seen depends on the method and setting. Binding seen in cells or lysates may run through a third protein. Some results given as binding are weak or reduced against the parent protein; the word gives no strength. Where a sequence is shown, tags or fusion partners need not be part of it.

Chains of the proteins cited; added tags and fusions are not shown. Residues count along the entry.
UniProt P27958, residues 810-1026: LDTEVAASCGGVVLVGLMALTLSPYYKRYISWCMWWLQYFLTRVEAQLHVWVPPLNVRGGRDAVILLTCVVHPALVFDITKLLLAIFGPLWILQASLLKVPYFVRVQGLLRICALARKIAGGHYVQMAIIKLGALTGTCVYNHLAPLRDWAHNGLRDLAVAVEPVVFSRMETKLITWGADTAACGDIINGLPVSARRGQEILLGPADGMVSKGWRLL
UniProt Q99IB8, residues 814-1030: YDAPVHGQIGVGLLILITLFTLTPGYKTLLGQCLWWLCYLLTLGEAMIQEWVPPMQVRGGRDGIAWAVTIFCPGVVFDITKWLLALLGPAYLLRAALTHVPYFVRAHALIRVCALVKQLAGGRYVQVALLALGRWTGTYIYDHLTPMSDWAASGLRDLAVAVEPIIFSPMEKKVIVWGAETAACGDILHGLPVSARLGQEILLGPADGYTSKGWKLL

Assays:
[1] = biological target: Flag-tagged HCV genotype 1a H77 NS2 (Hepatitis C virus genotype 1a, strain H77) (UniProt P27958); assay: co-IP; 293T cells co-transfected with HA-SPCS1 and Flag-tagged H77- or JFH1-NS2; Flag co-immunoprecipitation
[2] = biological target: Flag-tagged HCV genotype 2a JFH1 NS2 (Hepatitis C virus genotype 2a, strain JFH1) (UniProt Q99IB8); assay: as above

B1: HA-tagged signal peptidase complex subunit 1 (SPCS1) (protein, UniProt Q9Y6A9 1-169)
chain: MARGGDTGCTGPSETSASGAAAIALPGLEGPATDAQCQTLPLTVLKSRSPSPRSLPPALSCPPPQPAMLEHLSSLPTQMDYKGQKLAEQMFQGIILFSAIVGFIYGYVAEQFGWTVYIVMAGFAFSCLLTLPPWPIYRRHPLKWLPVQESSTDDKKPGERKIKRHAKNN
**Q.** Which binding [1] does the source give for B1 here?
**A.** binds

**Q.** What about the binding [2] of the same binder?
**A.** binds
